Laboratory results published in publication doi:10.1101/2024.12.04.626816.
No constants are given. Whether binding was seen depends on the method and setting. In cells and extracts the contact can be indirect. Some binding calls cover weakened binding; strength is not graded here.

Sequences of proteins named here, by UniProt entry; tags and fusion partners are left off.
UniProt Q92793: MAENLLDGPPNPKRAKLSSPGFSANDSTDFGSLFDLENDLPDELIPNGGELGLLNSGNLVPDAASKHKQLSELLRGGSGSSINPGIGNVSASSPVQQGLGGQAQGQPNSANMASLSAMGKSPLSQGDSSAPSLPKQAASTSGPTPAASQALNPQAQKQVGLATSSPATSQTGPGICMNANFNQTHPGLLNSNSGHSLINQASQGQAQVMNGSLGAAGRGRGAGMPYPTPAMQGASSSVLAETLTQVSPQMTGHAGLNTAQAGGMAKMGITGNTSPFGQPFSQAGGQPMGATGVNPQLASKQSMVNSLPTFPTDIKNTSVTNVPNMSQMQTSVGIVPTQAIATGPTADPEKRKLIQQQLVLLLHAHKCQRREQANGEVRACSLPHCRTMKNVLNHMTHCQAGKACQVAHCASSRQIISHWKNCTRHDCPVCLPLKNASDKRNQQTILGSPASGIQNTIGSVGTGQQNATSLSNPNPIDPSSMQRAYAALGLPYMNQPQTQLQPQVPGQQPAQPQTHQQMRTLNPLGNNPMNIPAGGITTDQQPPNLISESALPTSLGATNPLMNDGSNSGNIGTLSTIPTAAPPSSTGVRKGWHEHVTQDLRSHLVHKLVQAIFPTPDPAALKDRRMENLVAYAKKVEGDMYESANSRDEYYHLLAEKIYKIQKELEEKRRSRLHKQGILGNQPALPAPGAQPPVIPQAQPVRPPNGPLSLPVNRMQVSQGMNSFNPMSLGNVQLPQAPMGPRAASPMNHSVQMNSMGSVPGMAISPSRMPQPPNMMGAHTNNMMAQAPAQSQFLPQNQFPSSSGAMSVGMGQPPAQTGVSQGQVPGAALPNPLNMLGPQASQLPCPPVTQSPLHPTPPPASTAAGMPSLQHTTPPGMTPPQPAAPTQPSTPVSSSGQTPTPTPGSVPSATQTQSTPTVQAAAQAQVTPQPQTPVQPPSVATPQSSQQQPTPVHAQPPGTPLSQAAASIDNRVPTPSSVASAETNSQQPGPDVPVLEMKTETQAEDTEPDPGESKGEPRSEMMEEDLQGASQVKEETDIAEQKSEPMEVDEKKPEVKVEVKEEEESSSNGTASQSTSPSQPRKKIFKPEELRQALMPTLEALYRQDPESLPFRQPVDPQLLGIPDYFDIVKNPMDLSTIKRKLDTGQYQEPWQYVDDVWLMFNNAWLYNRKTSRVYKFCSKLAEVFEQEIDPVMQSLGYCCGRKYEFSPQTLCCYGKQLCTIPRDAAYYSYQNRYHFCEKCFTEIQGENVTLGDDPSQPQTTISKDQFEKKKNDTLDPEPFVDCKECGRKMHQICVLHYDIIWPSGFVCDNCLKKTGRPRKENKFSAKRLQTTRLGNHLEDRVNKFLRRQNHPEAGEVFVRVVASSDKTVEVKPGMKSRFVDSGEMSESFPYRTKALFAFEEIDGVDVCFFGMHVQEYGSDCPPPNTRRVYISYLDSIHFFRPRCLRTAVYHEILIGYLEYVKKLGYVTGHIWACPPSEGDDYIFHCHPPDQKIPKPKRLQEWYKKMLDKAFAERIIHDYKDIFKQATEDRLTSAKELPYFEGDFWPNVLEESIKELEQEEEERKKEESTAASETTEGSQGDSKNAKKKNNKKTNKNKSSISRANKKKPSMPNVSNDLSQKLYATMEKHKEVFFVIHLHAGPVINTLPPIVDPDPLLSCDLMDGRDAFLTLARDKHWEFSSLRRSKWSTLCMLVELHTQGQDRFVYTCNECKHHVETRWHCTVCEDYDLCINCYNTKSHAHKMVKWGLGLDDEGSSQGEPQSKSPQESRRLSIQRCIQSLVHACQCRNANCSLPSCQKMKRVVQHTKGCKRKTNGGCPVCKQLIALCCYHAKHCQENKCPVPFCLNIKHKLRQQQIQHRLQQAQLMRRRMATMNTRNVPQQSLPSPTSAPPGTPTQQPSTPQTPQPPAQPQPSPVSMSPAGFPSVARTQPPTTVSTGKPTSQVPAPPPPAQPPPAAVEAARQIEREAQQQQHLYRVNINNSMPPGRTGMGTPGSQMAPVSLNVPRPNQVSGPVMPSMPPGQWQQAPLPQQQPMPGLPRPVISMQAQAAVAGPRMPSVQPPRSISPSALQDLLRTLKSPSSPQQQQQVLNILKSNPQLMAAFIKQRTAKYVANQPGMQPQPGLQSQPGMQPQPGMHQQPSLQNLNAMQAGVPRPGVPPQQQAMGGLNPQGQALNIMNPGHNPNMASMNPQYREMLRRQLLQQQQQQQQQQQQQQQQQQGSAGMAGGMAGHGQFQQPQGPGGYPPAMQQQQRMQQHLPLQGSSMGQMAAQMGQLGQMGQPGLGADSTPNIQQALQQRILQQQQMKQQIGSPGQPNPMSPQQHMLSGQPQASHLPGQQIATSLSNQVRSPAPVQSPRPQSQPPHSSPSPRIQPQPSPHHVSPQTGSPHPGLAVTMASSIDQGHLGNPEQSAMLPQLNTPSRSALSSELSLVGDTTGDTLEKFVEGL

How the values were obtained:
Assay in all cases: co-IP
[1] = target: T1, FOXA2 (lentiviral, in LuNE cells) (human) (UniProt Q9Y261)
T1 sequence: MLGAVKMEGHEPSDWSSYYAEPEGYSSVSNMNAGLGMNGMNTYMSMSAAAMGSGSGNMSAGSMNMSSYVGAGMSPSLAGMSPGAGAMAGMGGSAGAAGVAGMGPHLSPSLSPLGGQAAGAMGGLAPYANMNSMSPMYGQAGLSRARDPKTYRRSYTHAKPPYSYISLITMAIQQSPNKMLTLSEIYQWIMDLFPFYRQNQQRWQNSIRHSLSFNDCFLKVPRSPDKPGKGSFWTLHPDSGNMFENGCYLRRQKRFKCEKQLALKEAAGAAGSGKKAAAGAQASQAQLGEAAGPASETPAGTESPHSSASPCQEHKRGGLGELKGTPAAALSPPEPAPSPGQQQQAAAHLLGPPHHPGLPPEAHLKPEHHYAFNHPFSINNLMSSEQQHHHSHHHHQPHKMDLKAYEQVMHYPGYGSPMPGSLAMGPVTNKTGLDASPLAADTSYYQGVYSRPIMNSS

[2] = target: T2, NKX2-1 (human (endogenous in NCI-H660 and LuNE)) (UniProt P43699)
T2 sequence: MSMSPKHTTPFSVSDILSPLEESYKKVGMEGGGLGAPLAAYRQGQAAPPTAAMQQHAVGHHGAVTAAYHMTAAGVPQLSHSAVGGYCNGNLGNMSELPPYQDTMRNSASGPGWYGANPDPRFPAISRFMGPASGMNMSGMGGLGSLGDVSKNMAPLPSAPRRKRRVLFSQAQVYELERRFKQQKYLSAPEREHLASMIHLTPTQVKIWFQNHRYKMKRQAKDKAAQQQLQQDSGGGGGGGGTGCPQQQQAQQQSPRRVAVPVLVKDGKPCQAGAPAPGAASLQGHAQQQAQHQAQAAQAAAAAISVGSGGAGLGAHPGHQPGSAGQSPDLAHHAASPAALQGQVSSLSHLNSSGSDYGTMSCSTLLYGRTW

[3] = target: T3, FOXA2 (endogenous, NCI-H660) (human (endogenous in NCI-H660)), Q9Y261; details: remark: other sources report otherwise
T3 chain: T1 sequence

[4] = target: T4, NKX2-1 (human (endogenous in NCI-H660 and LuNE)), P43699; details: remark: other sources report otherwise
T4 chain: T2 sequence

CREBBP (CBP) (from UniProt Q92793 1-2442) (enzyme)
binding [1]: binds
binding [2]: binds

B1: NKX2-1, P43699 1-371 (protein)
chain: T2 sequence
binding [3]: binds

B2: FOXA2 (endogenous, NCI-H660), Q9Y261 1-457 (protein)
chain: T1 sequence
binding [4]: binds
